Measurements as given in US20060002934A1 (priority 2002, published 2006).
“Also recorded” adds a separate entry of the source. At least one compound was matched to its structure with a doubt left.

What was measured:
[1] = tested on: MDA-MB-435S cells expressing del 8 E-cadherin; test: Cell motility by time-lapse laser scanning microscopy, del 8 E-cadherin transfectants; type: cell-based, human; conditions: del 8 E-cadherin cells on collagen I, 7 h; PD 98059 50 μM, LY 294002 40 μM, Tyrphostin AG 1478 6.3 μM
Description: For time-lapse laser scanning microscopy, cells were cultivated in a microscope-coupled incubation chamber (Zeiss, Jena, Germany) at 37° C. under 5% CO2. Cells were seeded at a density of 2×10^5 cells per 3.5-cm in plates with a glass bottom which were purchased either uncoated or coated with poly-lysine from MatTek Corporation (Ashland, Mass., USA). Uncoated plates were coated for 4 h at 37° C. with collagen I (100 μg/ml, Sigma, Deisenhofen, Germany) or overnight at 4° C. with fibronectin (10 μg/ml, Sigma) or vitronectin (10 μg/ml, Becton Dickinson, Bedford, USA). Kinase inhibitors were used at final concentrations of 50 μM (PD 98059, Sigma, Deisenhofen, Germany), 40 μM (LY 294002, Calbiochem, Schwalbach, Germany), or 6.3 μM (Tyrphostin AG 1478, Sigma). […] The percentage of motile cells was measured by drawing the outlines of cells on the screen and counting the cells which moved completely out of the initial area within the recording time of 7 h. […] Cell motility was analyzed by long-term recordings of a duration of 7 h starting 2 h after plating using a laser scanning microscope coupled with a temperature- and CO2-controlled incubation chamber. […] In order to determine the motility of individual cells, the center of the nucleus was semiautomatically traced and the speed of 60 cells per cell line derived from at least three independent experiments was calculated. […]

PI 3-kinase = PI 3-kinase assay in anti-PI 3-kinase p85 immunoprecipitates; type: biochemical, human; conditions: LY 294002 10 μM included in the reaction
Akt/PKB = test: Western blot with phosphorylation-specific antibodies, Akt/PKB; type: cell-based, human
Description: For immunoblot analysis, cells were seeded at a density of 6×10^5 cells per 10 cm tissue culture dish and lysed 5 h later with 500 μL-CAM buffer (140 mM NaCl, 4.7 mM KCl, 0.7 mM MgSO4, 1.2 mM CaCl2, 10 mM Hepes pH 7.4, containing 1% (v/v) Triton-X-100 and 1 mM phenylmethylsulfonylfluoride (PMSF) (Cunningham, Proc. Acad. Sci. USA 81 (1984), 5787-5791). Proteins were separated by 7% SDS-polyacrylamide gel electrophoresis followed by transfer to nitrocellulose (Schleicher & Schuell, Dassel, Germany) or PVDF (Bio-Rad Laboratories, München, Germany) membranes. Polyclonal antibodies against total or activated kinases were purchased from New England Biolabs (Frankfurt, Germany): Akt antibody (#9272), detecting total Akt kinase levels, phospho-Akt antibody (Ser473, #9270), detecting phosphorylated Ser 473 in Akt1, Akt2 and Akt3, MAP kinase antibody (# 9102), detecting total MAP kinase, phospho-p44/42 MAP kinase (#9101) detecting activated MAP kinase phosphorylated at Thr 202/[…]. Monoclonal antibody against p53 was purchased from Oncogene Research Products (Ab-6, #OP43). Polyclonal antibodies against total or activated p38 MAP kinases were purchased from New England Biolabs. Phospho-p38 MAP kinase polyclonal antibody (#9211) detects phosphorylated threonine 180 and tyrosine 182 p38 MAP kinase (#9212). […]

O=c1cc(N2CCOCC2)oc2c(-c3ccccc3)cccc12 [LY 294002] was tested, and the “cell motility enhanced by mutant E-cadherin (effect of inhibitor)” value [1] was “blocked; also recorded: inhibited”, the “PI 3-kinase activation” value (PI 3-kinase) was “sensitive” and the “EGF-induced activation of Akt/PKB” value (Akt/PKB; Western blot, data not shown) was “inhibited EGF-induced Akt/PKB activation to a similar extent”. For the same molecule, the “phosphorylation status of Akt/PKB” value (Akt/PKB; wt or mutant E-cadherin-cDNA expressing MDA-MB-435S cells, no EGF stimulation) was “did not detectably interfere”.
